Assay results taken from patent US20100311759A1, “ANTIPARASITIC AGENT FOR FISH AND METHOD OF CONTROLLING PROLIFERATION OF FISH PARASITES” (NIPPON SUISAN KAISHA, LTD., priority 2007, published 2010).

System: Cryptocaryon irritans
Assay: Examples 3 and 4: oral administration of single inhibitors and a combination, body length of Cryptocaryon irritans on Pagrus major (FIG. 4)
Assay type: in vivo
Details: 300 mg/kg fish body weight/day for three days; 60 parasites per plot; P≦0.01
Text: During the rearing period, 1.4 liters/min. of seawater was supplied. […] After exposure, seven fish each were moved into six 100-liter aquariums. During the rearing period, 1.4 liters/min. of seawater was supplied. […] Experimental plot: […]

SMILES: Cc1cc(NS(=O)(=O)c2ccc(N)cc2)no1 [sulfamethoxazole]
- growth rate of parasites (body length as percentage of control plot), difference from control plot: statistically significant difference
